“And” between values parts separate entries of the source, which are not always exact repeats. Equal entries are not always repeated. Out of some 330,000 compounds screened, about 7,700 (2.3%) were called active. Inconclusive results, whose numbers are uncertain, are shown with a selection of clear calls. Calls follow the shape of the dose curve; as a rule, active = well fitted inhibition curve with a large enough effect; inconclusive = small, poorly fitted or top-dose-only effect, or effect the other way; inactive = flat fitted curve, though single readings scatter. A potency beside an inconclusive call is a rough fit, not a confirmed value.
Test: qHTS screen for small molecules that inhibit ELG1-dependent DNA repair in human embryonic kidney (HEK293T) cells expressing luciferase-tagged ELG1; also: nearly all actives have a fitted effect of over 55% in size
Details: HEK293T ELG1-luciferase reporter, luminescence, 16 h, DNA damage induced by 5-fluorouridine; activity change, negative = inhibition: at 46.1 µM (top of the series)
Method in brief: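 DMSO vehicle served as the neutral condition. Each well held 2,000 cells given 5-fluorouridine plus compound; after 16 hr at 37 °C/5% CO2, ONE-Glo was added and luciferase measured 30 min later.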
% is scaled to controls: 0 for no effect and ±100 for the full control effect; potency is read from the fitted curve at half-maximal effect.

Row | Compound | Potency | activity change, negative = inhibition
1 | CN(C(=O)Oc1ccc(C(C)(C)C)cc1)c1ccccc1 | inconclusive: 20.6 µM [activator, partial curve] | 
2 | O=C(c1cc(-c2ccccc2)on1)N1CCC2(CC1)OCCO2 | inconclusive: 14.6 µM [activator, partial curve] | 
3 | CCN1CCN(C(=O)COc2ccc(S(=O)(=O)Nc3ccc(Cl)cc3)cc2)CC1 |  | inactive: -10.6%
4 | O=C(CN1CCCC1)Nc1ccc(NC(=O)Nc2ccccc2)cc1 | inconclusive: 20.6 µM [activator, partial curve] | 
5 | CCOC(=O)c1ccc2[nH]c(-c3ccc(S(=O)(=O)F)cc3)cc(=O)c2c1 | inconclusive: 29.1 µM [activator, single point] | 
6 | O=c1[nH]c(=O)n(C2CCCCCC2)c(O)c1C=NC1CCN(Cc2ccccc2)CC1 | inconclusive: 23.1 µM [inhibitor, single point] | 
7 | CCN1CCN(C(=O)COc2ccc(S(=O)(=O)N3CCOCC3)cc2Cl)CC1 |  | inactive: 18.2%
8 | Cc1ccc2c(c1)CC1(CN2C)C(=O)NC(=O)N(CCc2ccccc2)C1=O (stereo not drawn) | inconclusive: 29.1 µM [activator, single point] | 
9 | COC(=O)C1=C(c2ccc(OCc3ccccc3)cc2)C[C@@H]2CC[C@H]1N2C(=O)NCc1ccc(N(C)C)cc1 | inconclusive: 18.3 µM [inhibitor, single point] | 
10 | CC(=O)c1c(C)n(C2CCCCC2)c2ccc(O)cc12 | inconclusive: 2.31 µM [inhibitor, partial curve] | 
11 | COc1ccc(N=Cc2c(O)n(C)c(=O)[nH]c2=O)cc1 | inconclusive: 14.6 µM [activator, partial curve, poor fit] | 
12 | CC(=O)Nc1ccc(OC(=O)N(C)c2ccccc2)cc1 | inconclusive: 29.1 µM [activator, single point] | 
13 | COC(=O)C1=C(c2ccccc2OCc2ccccc2)C[C@@H]2CC[C@H]1N2C(=O)NCCOc1ccc(OC)cc1 | inconclusive: 23.1 µM [inhibitor, single point] | 
14 | O=C(NCCOc1cccnc1)c1ccc(OC2CCN(Cc3ccccn3)CC2)cc1 | inconclusive: 1.46 µM [inhibitor, full curve] | 
15 | O=c1[nH]c(=S)n(C2CCCCC2)c(O)c1/C=N/N1CCOCC1 |  | inactive: 9.43%
16 | O=C(CCn1c(=O)oc2ccccc21)N1CCN(c2ccccc2Cl)CC1 | inconclusive: 5.17 µM [inhibitor, partial curve, poor fit] | 
17 | CCOC(=O)c1cc(C)sc1/N=C/C1C(=O)NC(=S)NC1=O |  | inactive: 8.51%
18 | Cc1ccnc(-n2c(C)cc(C=C3C(=O)N(C)C(=S)N(C)C3=O)c2C)c1 |  | inactive: 0.333%
19 | COc1cc(C2C(C#N)=C(N)Oc3cc(O)ccc32)cc(OC)c1OC (stereo not drawn) | inconclusive: 29.1 µM [activator, single point] | 
20 | Cn1c(O)c(C=Nc2ccc3c(c2)CCC3)c(=O)n(C)c1=O | inconclusive: 4.61 µM [activator, partial curve] | 
21 | CC[N+](C)(CC)CCC[n+]1c(-c2ccccc2)c2cc(N)ccc2c2ccc(N)cc21 | inconclusive: 35.5 µM [inhibitor, single point] | 
22 | CCOP(=O)(OCC)C(Nc1cccc([N+](=O)[O-])c1)c1ccc(OC)cc1 (stereo not drawn) | inconclusive: 18.3 µM [inhibitor, partial curve] | 
23 | O=C(CNC(=O)OCc1ccccc1)Nc1ccc(Br)cc1C(=O)c1ccccc1 | inconclusive: 18.4 µM [inhibitor, single point] | 

Row | Compound | Potency | activity change, negative = inhibition
24 | Cc1cccc(-n2c(/C=C/c3ccccn3)nc3ccccc3c2=O)c1 | inconclusive: 20.6 µM [inhibitor, partial curve] | 
25 | c1ccc(CCNCc2cccs2)cc1 |  | inactive: 2.99%
26 | O=C1CN=C(c2cccs2)c2c(sc3c2CCCC3)N1 |  | inactive: -16.5%
27 | Cc1cccc(N2C(=O)NC(=O)/C(=C\C=C\c3ccco3)C2=O)c1 | inconclusive: 29.1 µM [inhibitor, single point] | 
28 | CCOc1cc(CNCCc2c[nH]c3ccccc23)cc(Cl)c1OC |  | inactive: -2.37%
29 | CC(C)CCNC(=O)c1c(N)n(Cc2ccc3c(c2)OCO3)c2nc3ccccc3nc12 | inconclusive: 20.6 µM [inhibitor, single point] | 
30 | C1=C(c2c[nH]c3ccccc23)CCN(Cc2ccccc2)C1 | inconclusive: 9.2 µM [inhibitor, partial curve, poor fit] | 
31 | Clc1ccc(NC2=NCCCS2)cc1Cl | inconclusive: 20.6 µM [activator, single point] | 
32 | COC(=O)C1=C(c2ccc(F)cc2OCc2ccccc2)C[C@@H]2CC[C@H]1N2C(=O)N1CCCC1 | inconclusive: 23.1 µM [inhibitor, single point] | 
33 | O=C(CN1CCN(C(=O)COc2cccc(F)c2)CC1)Nc1ccc(Cl)c(C(F)(F)F)c1 | inconclusive: 18.3 µM [inhibitor, single point] | 
34 | COc1ccc(N=C(C)c2c(O)n(C)c(=O)n(C)c2=O)c(OC)c1 | inconclusive: 16.4 µM [inhibitor, single point] | 
35 | CN[C@H]1C[C@H]2O[C@@](C)([C@H]1OC)n1c3ccccc3c3c4c(c5c6ccccc6n2c5c31)C(=O)NC4 | active: 0.517 µM | 
36 | CN(C)C(=O)Oc1c(Cl)cc(Cl)c2cccnc12 |  | inactive: 1.69%
37 | CCOP(=O)(OCC)/C(C#N)=C/c1ccc(Br)cc1 |  | inactive: 0.911%
38 | CC(C)NC(C)Cc1ccc(I)cc1 (stereo not drawn) |  | inactive: 1.13%
39 | COC(=O)C1=C(c2c(C)noc2C)C[C@@H]2CC[C@H]1N2C(=O)NCC1CC1 | inconclusive: 20.6 µM [activator, partial curve, poor fit] | 
40 | c1ccc2c(CN3CCCCC3)c[nH]c2c1 | inconclusive: 0.0046 µM [activator, full curve, poor fit] | 
41 | O=C(Oc1c(Cl)cc(Cl)c2ccccc12)N1CCCCC1 | inconclusive: 18.4 µM [activator, partial curve, poor fit] | 
42 | Cc1ccc(N2C(=O)CC(=O)NC2=O)cc1Cl |  | inactive: -3.23%
43 | Clc1ccc(OCC#CCN2CCOCC2)cc1 | inconclusive: 29.1 µM [activator, single point] | 
44 | O=C(CCc1nnc2ccc(NCc3ccc(F)cc3)nn12)N1CCC2(CC1)OCCO2 | inconclusive: 7.3 µM [activator, partial curve, poor fit] | 
45 | CC(c1nccs1)N(C)C(=O)c1cn(Cc2cccc3ccccc23)nn1 (stereo not drawn) | inconclusive: 20.6 µM [activator, partial curve] | 
46 | CCN(CC)C(=O)Oc1nnc(SC(C)C)n1-c1ccc(Cl)c(Cl)c1 | inconclusive: 20.6 µM [inhibitor, single point] | 

Row | Compound | Potency | activity change, negative = inhibition
47 | C=C(C=O)C[C@@H]1C[C@H](O)C2OC3C[C@]4(C)OC5/C=C\CC6OC7C(CC=CCC6OC5CCCC4OC3CC2O1)OC1CC2OC3CC(=O)OC3C[C@@H](C)C[C@@]2(C)OC1C[C@@H]7C (stereo partly drawn) | active: 2.59 µM and active: 4.11 µM | 
48 | COc1c(C)cc(C(=O)C2CCCN(Cc3cccc(C)n3)C2)cc1C (stereo not drawn) | inconclusive: 20.6 µM [inhibitor, single point] | 
49 | Cc1ccc(-n2c(O)c(/C=N/NC(=O)c3ccncc3)c(=O)[nH]c2=O)cc1C |  | inactive: 5.57%
50 | ClCCN1CCN(c2ccnc3cc(Cl)ccc23)CC1 |  | inactive: 7.48%
51 | Cc1nc2ccccc2c(=O)n1-c1ccc([N+](=O)[O-])cc1 | inconclusive: 16.4 µM [activator, single point] | 
52 | O=Cc1cn(Cc2c(F)cccc2Cl)c2ccccc12 | inconclusive: 20.6 µM [inhibitor, single point] | 
53 | COc1ccc(-c2cc(=O)c3c(OC)c(OC)c(OC)cc3o2)cc1 | inconclusive: 29.1 µM [inhibitor, single point] | 
54 | CCCC(c1nnnn1Cc1cccs1)N1CCN(c2nc3ccccc3s2)CC1 (stereo not drawn) | active: 23.1 µM | 
55 | CC1(C)OC(c2ccccc2)=C/C(=C/C=C2C(=O)NC(=O)NC2=O)O1 | inconclusive: 29.1 µM [activator, single point] | 
56 | CN(C=O)CP(=O)(O)CN(C)C=O | inconclusive: 29.1 µM [activator, partial curve, poor fit] | 
57 | CN1CCCC(C(O)(c2ccccc2)c2ccccc2)C1 (stereo not drawn) | inconclusive: 0.231 µM [inhibitor, single point] | 
58 | Cc1ccsc1C(=O)C1CCCN(Cc2cccc(-n3cccn3)c2)C1 (stereo not drawn) | inconclusive: 29.1 µM [inhibitor, single point] | 
59 | CCOc1ccc(CC2(CCc3ccncc3)C(=O)NC(=O)NC2=O)cc1 |  | inactive: 11.3%
60 | CC(C)n1c(O)c(C=NCc2ccccc2)c(=O)[nH]c1=S |  | inactive: -0.736%
61 | COc1cc(OC)cc(C(=O)NC(=S)N2C[C@H]3C[C@H](C2)c2cccc(=O)n2C3)c1 |  | inactive: -15%
62 | CC(C)N(Cc1nccn1C)C(=O)CCc1nnc(CCCc2ccccc2)o1 | inconclusive: 16.4 µM [activator, partial curve] | 
63 | Cn1cc[n+](C)c1P(=S)(c1ccccc1)c1ccccc1 |  | inactive: -14.4%
64 | COc1ccc(NS(=O)(=O)c2cc(NC(=O)COc3ccccc3)ccc2N2CCOCC2)cc1 | inconclusive: 25.9 µM [inhibitor, single point] | 
65 | CC(C)c1cccc(O)c(=O)c1 | inconclusive: 16.4 µM [inhibitor, partial curve] | 
66 | O=C(Oc1ccc2ccccc2c1Cl)N1CCCC1 | inconclusive: 2.59 µM [activator, full curve] | 
67 | Cc1sc2c(c1C)C(c1ccc(C(C)(C)C)cc1)=NCC(=O)N2CC(=O)Nc1nccs1 |  | inactive: 0.782%
68 | COC(=O)C1=C(c2ccccc2OCc2ccccc2)C[C@@H]2CC[C@H]1N2C(=O)NCc1ccc(C(C)(C)C)cc1 |  | inactive: -22.7%

Entries of single compounds as entered above.
`Cn1cc[n+](C)c1P(=S)(c1ccccc1)c1ccccc1` in the list: activity change, negative = inhibition: inactive: -14.4%
`ClCCN1CCN(c2ccnc3cc(Cl)ccc23)CC1` in the list: activity change, negative = inhibition: inactive: 7.48%
`CCCC(c1nnnn1Cc1cccs1)N1CCN(c2nc3ccccc3s2)CC1` (stereo not drawn) in the list: Potency: active: 23.1 µM
`CCOc1ccc(CC2(CCc3ccncc3)C(=O)NC(=O)NC2=O)cc1` in the list: activity change, negative = inhibition: inactive: 11.3%

Source: PubChem BioAssay AID504467 (National Center for Advancing Translational Sciences (NCATS), 2011)
